From paper doi:10.1101/2020.04.09.033621
Where two headings read alike, the source gives them in different places. These are yes or no findings as the source states them, for the method shown. In cells and extracts the contact can be indirect. Here binding means that the protein was enriched with, or labelled near, the bait; the list need not be complete.

Amino acid sequences for entries named in this document (tags omitted).
UniProt Q9UM11: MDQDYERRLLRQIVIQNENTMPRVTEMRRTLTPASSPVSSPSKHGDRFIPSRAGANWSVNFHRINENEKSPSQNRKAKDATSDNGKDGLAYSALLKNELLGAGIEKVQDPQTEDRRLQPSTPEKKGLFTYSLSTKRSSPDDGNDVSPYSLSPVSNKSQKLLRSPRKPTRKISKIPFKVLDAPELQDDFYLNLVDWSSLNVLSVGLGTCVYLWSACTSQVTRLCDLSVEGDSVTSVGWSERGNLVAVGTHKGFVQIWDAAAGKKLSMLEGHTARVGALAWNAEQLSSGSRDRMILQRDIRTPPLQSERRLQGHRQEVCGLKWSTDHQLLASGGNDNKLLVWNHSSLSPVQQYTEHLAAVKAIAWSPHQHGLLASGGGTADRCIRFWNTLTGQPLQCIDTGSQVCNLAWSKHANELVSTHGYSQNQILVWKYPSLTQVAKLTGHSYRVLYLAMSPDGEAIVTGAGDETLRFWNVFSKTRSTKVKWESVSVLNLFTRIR
UniProt P31350: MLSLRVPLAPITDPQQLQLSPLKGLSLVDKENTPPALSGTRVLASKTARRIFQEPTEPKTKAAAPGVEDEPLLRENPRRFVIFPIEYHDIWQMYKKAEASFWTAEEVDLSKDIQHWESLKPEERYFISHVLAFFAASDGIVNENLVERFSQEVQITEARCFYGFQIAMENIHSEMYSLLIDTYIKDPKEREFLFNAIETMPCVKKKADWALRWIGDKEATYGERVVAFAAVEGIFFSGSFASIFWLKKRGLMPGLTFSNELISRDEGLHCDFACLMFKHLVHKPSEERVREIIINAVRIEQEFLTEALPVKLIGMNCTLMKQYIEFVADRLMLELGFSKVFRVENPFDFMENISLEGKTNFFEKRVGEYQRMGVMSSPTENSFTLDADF
UniProt Q9HAW4: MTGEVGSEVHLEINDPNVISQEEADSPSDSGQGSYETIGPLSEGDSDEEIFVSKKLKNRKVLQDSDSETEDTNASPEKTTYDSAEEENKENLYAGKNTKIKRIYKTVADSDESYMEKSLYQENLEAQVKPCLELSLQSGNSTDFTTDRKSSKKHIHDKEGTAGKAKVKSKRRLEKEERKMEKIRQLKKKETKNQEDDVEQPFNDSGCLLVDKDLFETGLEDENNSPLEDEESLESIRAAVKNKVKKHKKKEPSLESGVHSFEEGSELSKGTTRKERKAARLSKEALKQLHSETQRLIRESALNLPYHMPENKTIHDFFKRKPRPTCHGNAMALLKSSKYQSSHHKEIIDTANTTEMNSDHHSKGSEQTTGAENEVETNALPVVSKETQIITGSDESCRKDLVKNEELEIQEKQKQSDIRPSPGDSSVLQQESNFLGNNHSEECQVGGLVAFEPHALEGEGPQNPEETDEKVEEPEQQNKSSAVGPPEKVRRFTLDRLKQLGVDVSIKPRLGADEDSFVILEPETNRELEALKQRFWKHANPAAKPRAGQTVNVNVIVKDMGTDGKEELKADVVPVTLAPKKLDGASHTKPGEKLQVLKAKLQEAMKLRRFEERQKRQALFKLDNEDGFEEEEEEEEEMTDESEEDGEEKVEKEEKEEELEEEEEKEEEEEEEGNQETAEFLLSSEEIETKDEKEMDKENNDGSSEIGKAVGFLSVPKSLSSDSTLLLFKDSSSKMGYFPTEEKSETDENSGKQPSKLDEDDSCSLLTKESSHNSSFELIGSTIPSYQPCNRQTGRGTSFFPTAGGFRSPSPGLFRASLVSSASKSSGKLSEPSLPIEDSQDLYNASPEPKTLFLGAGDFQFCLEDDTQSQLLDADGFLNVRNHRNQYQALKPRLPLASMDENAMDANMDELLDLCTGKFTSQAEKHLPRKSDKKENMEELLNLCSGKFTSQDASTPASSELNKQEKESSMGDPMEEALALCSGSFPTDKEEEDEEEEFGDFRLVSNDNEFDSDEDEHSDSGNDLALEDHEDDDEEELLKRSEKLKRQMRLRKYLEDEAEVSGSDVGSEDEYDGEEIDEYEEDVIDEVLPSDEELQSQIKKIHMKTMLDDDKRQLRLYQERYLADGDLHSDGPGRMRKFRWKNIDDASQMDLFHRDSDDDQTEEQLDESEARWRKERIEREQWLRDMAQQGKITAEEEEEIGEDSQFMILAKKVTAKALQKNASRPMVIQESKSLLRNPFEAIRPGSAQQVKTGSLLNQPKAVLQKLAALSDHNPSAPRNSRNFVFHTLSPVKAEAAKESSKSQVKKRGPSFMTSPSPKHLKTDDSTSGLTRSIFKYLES
UniProt P52732: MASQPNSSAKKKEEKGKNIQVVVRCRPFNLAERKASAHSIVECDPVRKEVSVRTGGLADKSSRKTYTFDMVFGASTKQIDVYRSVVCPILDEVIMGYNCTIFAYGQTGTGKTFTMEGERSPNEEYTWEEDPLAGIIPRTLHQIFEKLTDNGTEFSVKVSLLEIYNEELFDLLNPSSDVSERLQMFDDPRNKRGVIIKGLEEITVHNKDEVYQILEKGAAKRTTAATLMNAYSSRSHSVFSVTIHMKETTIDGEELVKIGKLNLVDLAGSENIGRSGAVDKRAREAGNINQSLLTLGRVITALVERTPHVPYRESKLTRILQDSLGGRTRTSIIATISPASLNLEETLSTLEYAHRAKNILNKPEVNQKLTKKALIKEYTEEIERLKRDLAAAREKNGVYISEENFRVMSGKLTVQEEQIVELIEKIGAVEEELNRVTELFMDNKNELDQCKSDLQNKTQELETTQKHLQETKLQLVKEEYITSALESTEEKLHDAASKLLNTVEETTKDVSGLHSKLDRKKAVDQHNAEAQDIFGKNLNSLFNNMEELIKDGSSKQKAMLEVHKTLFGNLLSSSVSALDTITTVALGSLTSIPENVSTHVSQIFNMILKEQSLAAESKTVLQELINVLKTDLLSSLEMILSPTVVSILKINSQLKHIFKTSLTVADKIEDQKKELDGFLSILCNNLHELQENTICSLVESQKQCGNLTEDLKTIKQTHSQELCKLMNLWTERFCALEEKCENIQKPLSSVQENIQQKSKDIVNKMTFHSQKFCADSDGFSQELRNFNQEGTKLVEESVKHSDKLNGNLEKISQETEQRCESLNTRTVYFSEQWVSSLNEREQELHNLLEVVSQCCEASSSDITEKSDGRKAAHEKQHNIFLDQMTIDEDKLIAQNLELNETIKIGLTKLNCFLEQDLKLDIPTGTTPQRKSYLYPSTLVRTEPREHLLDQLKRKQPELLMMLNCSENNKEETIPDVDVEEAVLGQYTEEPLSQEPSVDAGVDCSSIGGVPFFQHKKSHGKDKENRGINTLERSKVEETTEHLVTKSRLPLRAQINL

B1: Kif22/KID (protein, UniProt Q14807 1-665)
chain: MAAGGSTQQRRREMAAASAAAISGAGRCRLSKIGATRRPPPARVRVAVRLRPFVDGTAGASDPPCVRGMDSCSLEIANWRNHQETLKYQFDAFYGERSTQQDIYAGSVQPILRHLLEGQNASVLAYGPTGAGKTHTMLGSPEQPGVIPRALMDLLQLTREEGAEGRPWALSVTMSYLEIYQEKVLDLLDPASGDLVIREDCRGNILIPGLSQKPISSFADFERHFLPASRNRTVGATRLNQRSSRSHAVLLVKVDQRERLAPFRQREGKLYLIDLAGSEDNRRTGNKGLRLKESGAINTSLFVLGKVVDALNQGLPRVPYRDSKLTRLLQDSLGGSAHSILIANIAPERRFYLDTVSALNFAARSKEVINRPFTNESLQPHALGPVKLSQKELLGPPEAKRARGPEEEEIGSPEPMAAPASASQKLSPLQKLSSMDPAMLERLLSLDRLLASQGSQGAPLLSTPKRERMVLMKTVEEKDLEIERLKTKQKELEAKMLAQKAEEKENHCPTMLRPLSHRTVTGAKPLKKAVVMPLQLIQEQAASPNAEIHILKNKGRKRKLESLDALEPEEKAEDCWELQISPELLAHGRQKILDLLNEGSARDLRSLQRIGPKKAQLIVGWRELHGPFSQVEDLERVEGITGKQMESFLKANILGLAAGQRCGAS

Tests used:
[1] = biological target: FLAG-Cdh1 (UniProt Q9UM11); experiment: affinity purification with mass spectrometry
[2] = biological target: FLAG-Cdh1 (UniProt Q9UM11); experiment: affinity purification with mass spectrometry; remark: listed apart in the source

Molecule | binding [1] | binding [2]
Rrm2 (from UniProt P31350 1-389) | binds | –
Claspin (from UniProt Q9HAW4 1-1339) | binds | –
Kif11 (from UniProt P52732 1-1056) | binds | –
B1 | – | binds weakly
